At least one structure is not confirmed: it was looked up by name or label, or the drawing left a doubt.
Assays:
PC-3 = assay: SRB anti-cancer assay, Prostate Cancer; format: cell-based, human; conditions: PC-3 (Prostate Cancer), 48 h
[1] = target: T1, adenosine deaminase from calf intestinal mucosa (Bos taurus, UniProt P56658); assay: Adenosine deaminase assay (Example 17); format: biochemical; conditions: Lineweaver-Burk plots; 50 mM phosphate buffer pH 7.4, 25° C.
T1 construct: against adenosine deaminase from calf intestinal mucosa; from tissue; host or cells: calf intestinal mucosa
T1 sequence (P56658 1-363): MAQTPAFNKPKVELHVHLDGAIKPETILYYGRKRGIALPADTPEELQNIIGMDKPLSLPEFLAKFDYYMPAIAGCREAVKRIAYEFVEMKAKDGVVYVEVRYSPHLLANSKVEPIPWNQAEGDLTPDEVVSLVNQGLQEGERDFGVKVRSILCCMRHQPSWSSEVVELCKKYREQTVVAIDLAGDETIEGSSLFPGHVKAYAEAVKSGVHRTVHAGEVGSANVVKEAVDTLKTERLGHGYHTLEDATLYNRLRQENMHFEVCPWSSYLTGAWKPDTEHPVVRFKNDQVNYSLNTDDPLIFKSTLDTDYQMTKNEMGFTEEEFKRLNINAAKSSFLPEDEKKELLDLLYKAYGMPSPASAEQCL
Protocol: Inhibition of adenosine deaminase (ADA) by Compound 17-1 and Compound 17-2 (see FIG. 13 for chemical structures; note that structure 1 FIG. 13 is the same as that in figure except that it is written in an anti-conformation in the former) was investigated in vitro against adenosine deaminase from calf intestinal mucosa in a 50 mM phosphate buffer (pH=7.4) at 25° C., by spectro-photometrically monitoring the rate of hydrolysis of substrate adenosine at 265 nm. Stock solutions of the substrate, enzyme, and inhibitors were prepared using a 50 mM phosphate buffer (pH 7.4). The enzyme kinetics was followed by measuring the change in optical density (decrease in absorbance) per minute of the substrate adenosine. By keeping the concentration of the inhibitor constant, and by varying the substrate concentration, a set of kinetic data was obtained. Additional sets of data were generated using different concentrations of the inhibitor. […]
(a) pre-incubation of the enzyme with the inhibitor; here the enzyme (ADA 10 μL) and inhibitor were preincubated for 10 min in a calculated amount of phosphate buffer (50 mM, pH 7.5 ) at 25° C. and the reaction was initiated by the addition of substrate, adenosine, and (b) without preincubation; here the reaction was started by addition of ADA (10 μL) to a mixture of adenosine and inhibitor in the phosphate buffer at 25° C. […]

786-0 = assay: SRB anti-cancer assay, Renal Cancer; format: cell-based, human; conditions: 786-0 (Renal Cancer), 48 h

Row | SMILES | LC50 (PC-3) | Ki [1] | LC50 (786-0)
1 | N=c1nc(N)c2ncn([C@@H]3O[C@H](COC(=O)c4ccccc4)[C@@H](OC(=O)c4ccccc4)[C@H]3OC(=O)c3ccccc3)c2c(N)n1 [4,8-Diamino-6H-6-imino-1(2′,3′,5′-tri-O-benzoyl-β-D-ribofuranosyl)imidazo[4,5-e][1,3]diazepine] | 4.275-05 M | – | –
2 | N=c1nc(N)c2ncn([C@@H]3O[C@H](CO)[C@@H](O)[C@H]3O)c2c(N)n1 [Compound 14-2, 4,8-Diamino-6H-6-imino-1-β-D-ribofuranosylimidazo[4,5-e][1,3]diazepine] | – | 3.85-4.44×10^−4 | >1.00-04 M
